{"source": "patent US5451572A", "about": "(Genentech, Inc., priority 1993, dated 1995)", "test": "RP-HPLC stability of lyophilized relaxin", "type": "physicochemical", "note": "Not every detail of the peptide structures is certain; ends, links or a residue may be inferred."}
{"smiles": "CC[C@H](C)[C@@H]1NC(=O)[C@H](C)NC(=O)[C@H]([C@@H](C)CC)NC(=O)[C@H](CCC(N)=O)NC(=O)[C@H](C)NC(=O)[C@H](CCCNC(=N)N)NC(=O)[C@H](C(C)C)NC(=O)[C@H](CC(C)C)NC(=O)[C@H](CCC(=O)O)NC(=O)[C@H](CCCNC(=N)N)NC(=O)CNC(=O)[C@@H](NC(=O)[C@H](CC(C)C)NC(=O)[C@H](CCCCN)NC(=O)[C@@H](NC(=O)[C@@H](NC(=O)[C@H](CCC(=O)O)NC(=O)[C@H](CCC(=O)O)NC(=O)[C@H](CCSC)NC(=O)[C@H](Cc2c[nH]c3ccccc23)NC(=O)[C@H](CO)NC(=O)[C@@H](N)CC(=O)O)C(C)C)[C@@H](C)CC)CSSC[C@@H]2NC(=O)[C@@H](NC(=O)[C@H](CCCCN)NC(=O)[C@H](CC(N)=O)NC(=O)[C@H](C)NC(=O)[C@H](CC(C)C)NC(=O)[C@H](C)NC(=O)[C@H](CO)NC(=O)[C@H](Cc3ccc(O)cc3)NC(=O)[C@H](CC(C)C)NC(=O)[C@@H]3CCC(=O)N3)CSSC[C@H](NC(=O)CNC(=O)[C@H](C(C)C)NC(=O)[C@H](Cc3c[nH]cn3)NC2=O)C(=O)N[C@@H]([C@@H](C)O)C(=O)N[C@@H](CCCCN)C(=O)N[C@@H](CCCNC(=N)N)C(=O)N[C@@H](CO)C(=O)N[C@@H](CC(C)C)C(=O)N[C@@H](C)C(=O)N[C@@H](CCCNC(=N)N)C(=O)N[C@@H](Cc2ccccc2)C(=O)N[C@H](C(=O)O)CSSC[C@@H](C(=O)NCC(=O)N[C@@H](CCSC)C(=O)N[C@@H](CO)C(=O)N[C@H](C(=O)N[C@@H](Cc2c[nH]c3ccccc23)C(=O)N[C@@H](CO)C(=O)N[C@@H](CCCCN)C(=O)N[C@@H](CCCNC(=N)N)C(=O)N[C@@H](CO)C(=O)N[C@@H](CC(C)C)C(=O)O)[C@@H](C)O)NC1=O", "note": "[long relaxin]", "values": [{"measurement": "appearance after reconstitution of lyophilizate", "setting": "10 mM citrate, mannitol, pH 5.0, reconstituted with 1 ml Milli-Q water", "result": "quite clear, free of turbidity"}, {"measurement": "% Main Peak", "setting": "pre lyophilization control", "result": 97.3, "unit": "%"}, {"measurement": "% Main Peak", "setting": "stored lyophilized 1 month, 25° C.", "result": 97.6, "unit": "%"}, {"measurement": "% Main Peak", "setting": "stored lyophilized 2 weeks, 5° C.", "result": "98.3 ± 0.3", "unit": "%"}, {"measurement": "% Main Peak", "setting": "stored lyophilized 2 weeks, 25° C.", "result": "98.1 ± 0.4", "unit": "%"}, {"measurement": "% Main Peak", "setting": "stored lyophilized 3 months, 5° C.", "result": "98.0 ± 0.5", "unit": "%"}, {"measurement": "% Main Peak", "setting": "stored lyophilized 3 months, 25° C.", "result": "98.8 ± 0.4", "unit": "%"}, {"measurement": "% light scattering (spectrophotometric)", "setting": "up to 3 months storage lyophilized at 25° C.", "result": "no increase in the % light scattering"}]}
